Ends that are not written are not given here.
Test system: human red blood cells (hRBCs)
Assay: Hemolytic activity
Type: cell-based
Conditions: HC50 (hRBCs) / MIC (S. epidermidis)
Experimental: The quantity of hemoglobin released by treatment was used as a measure of a peptide’s hemolytic activity against human red blood cells (hRBCs)[23]. Venous blood was collected from a healthy volunteer in plastic blood collection tubes with lithium heparin (BD Vacutainer™, USA) and centrifuged at 2000×g for 5 min to separate the plasma and buffy coat. The hRBCs obtained were washed at least three times and diluted to 4% (vol/vol) in phosphate-buffered saline (PBS; Caisson Laboratories, USA). The same volume of the hRBC suspension (50 µL) was incubated with twofold, serially diluted concentrations (0.98–250 μg/mL) of peptide dissolved in PBS for 1 h at 37 °C. The hRBCs incubated in 0.1% Triton X-100 and PBS were used as positive (100% hemolysis) and negative (0% hemolysis) controls, respectively. The release of hemoglobin into the supernatants was monitored by measurement of absorbance at 405 nm using a Multiskan SkyHigh microplate reader (Thermo Scientific™, Singapore). The percentage of hemolysis was calculated as previously described.

In the case of “H-KWKLFKKIGAVLKVL-NH2 [C(1–7)M(2–9), KWKLFKKIGAVLKVL-NH2, reference compound]”, the “TI, therapeutic index (ratio of HC50 to MIC)” value was 11.38.

With “KWKLFKKIGAVLKVLA-NH2 [CM-A, KWKLFKKIGAVLKVLA-NH2]” the “TI, therapeutic index (ratio of HC50 to MIC)” value was 5.45.

With “KWKLFKKIGKVLKKL-NH2 [CM-10K14K, KWKLFKKIGKVLKKL-NH2]” the “TI, therapeutic index (ratio of HC50 to MIC)” value was 143.71.

In the case of “KWKLFKKIGKVLKVL-NH2 [CM-10K, KWKLFKKIGKVLKVL-NH2]”, the “TI, therapeutic index (ratio of HC50 to MIC)” value was 21.94.

“VWKLFKKIGAVLKKL-NH2 [CM-1V14K, VWKLFKKIGAVLKKL-NH2]” was tested, and the “TI, therapeutic index (ratio of HC50 to MIC)” value was 16.86.

With “VWKLFKKIGKVLKKL-NH2 [CM-1V10K14K, VWKLFKKIGKVLKKL-NH2]” the “TI, therapeutic index (ratio of HC50 to MIC)” value was 30.41.

Source: article PMC10721899, “The bactericidal and antibiofilm effects of a lysine-substituted hybrid peptide, CM-10K14K, on biofilm-forming Staphylococcus epidermidis” (Scientific Reports, 2023)
